Reference: patent US20090188009A1, “HEAT SHOCK RNA FROM VARIOUS SPECIES AND ITS USE IN ACTIVATION OF HEAT SHOCK TRANSCRIPTION FACTOR, IN TREATMENT OF VARIOUS DISEASES IN ANIMALS AND IN GENERATION OF STRESS-RESISTANT PLANTS” (New York University, published 2009)
Results are given in words; binding and its absence hold for the method and conditions named. Some binding calls cover weakened binding; strength is not graded here.

Sequences of proteins named here, by UniProt entry; tags and fusion partners are left off. A change or cut given only in a name is not applied to a line headed by its entry. A line that says so, or that is headed by a name, gives the form on record, which may keep a tag or linker.
purified recombinant mouse HSF1 (heat shock transcription factor 1), released from GST-HSF1 by thrombin cleavage (P38532, form named): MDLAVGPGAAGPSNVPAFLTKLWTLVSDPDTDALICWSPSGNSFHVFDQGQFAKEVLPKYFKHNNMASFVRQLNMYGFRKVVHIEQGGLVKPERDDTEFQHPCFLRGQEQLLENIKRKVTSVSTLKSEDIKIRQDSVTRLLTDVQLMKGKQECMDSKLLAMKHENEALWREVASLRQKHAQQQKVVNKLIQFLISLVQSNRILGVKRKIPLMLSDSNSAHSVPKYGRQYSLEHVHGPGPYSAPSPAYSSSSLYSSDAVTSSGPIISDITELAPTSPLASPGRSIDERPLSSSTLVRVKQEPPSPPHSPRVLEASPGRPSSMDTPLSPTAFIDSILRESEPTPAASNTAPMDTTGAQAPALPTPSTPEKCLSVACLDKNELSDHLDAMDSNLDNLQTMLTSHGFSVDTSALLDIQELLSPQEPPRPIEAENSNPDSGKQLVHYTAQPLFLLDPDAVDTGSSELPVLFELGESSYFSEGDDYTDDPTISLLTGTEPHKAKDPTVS

Experiments:
[1] = molecular target: purified recombinant mouse HSF1 (heat shock transcription factor 1), released from GST-HSF1 by thrombin cleavage (mouse) (UniProt P38532); experiment: self-association (trimer): EGS cross-linking, SDS-PAGE, immunoblot with anti-HSF1 8487 polyclonal antibody
[2] = molecular target: purified recombinant mouse HSF1 (heat shock transcription factor 1), released from GST-HSF1 by thrombin cleavage (mouse) (UniProt P38532); experiment: self-association (trimer): EGS cross-linking and anti-HSF1 immunoblot; in the presence of eEF1A and HSR1-T3 RNA
[3] = molecular target: purified recombinant mouse HSF1 (heat shock transcription factor 1), released from GST-HSF1 by thrombin cleavage (mouse) (UniProt P38532); experiment: self-association (trimer): EGS cross-linking, SDS-PAGE, immunoblot with HSF1 8487 polyclonal antibody; in the presence of eEF1A and HSR1-T3 RNA
[4] = molecular target: purified recombinant mouse HSF1 (heat shock transcription factor 1), released from GST-HSF1 by thrombin cleavage (mouse) (UniProt P38532); experiment: self-association (trimer): EGS cross-linking, SDS-PAGE, anti-HSF1 immunoblot; in the presence of the eEF1A-containing fraction

- binding [1]: binds
- binding [2]: binds
- binding [3]: binds
- binding [4]: binds
Substance: purified recombinant mouse HSF1 (heat shock transcription factor 1), released from GST-HSF1 by thrombin cleavage (from UniProt P38532 1-503)
